This passage reports IC50 results from patent US20260200919A1, “SUBSTITUTED AMINOPYRIDINE COMPOUNDS AND METHODS OF TREATING DISEASE USING SAME” (Atavistik Bio, Inc., priority 2023, published 2026).

By UniProt entry, the sequences of proteins in these tests, tags left out.
UniProt P31749, whole entry E17K: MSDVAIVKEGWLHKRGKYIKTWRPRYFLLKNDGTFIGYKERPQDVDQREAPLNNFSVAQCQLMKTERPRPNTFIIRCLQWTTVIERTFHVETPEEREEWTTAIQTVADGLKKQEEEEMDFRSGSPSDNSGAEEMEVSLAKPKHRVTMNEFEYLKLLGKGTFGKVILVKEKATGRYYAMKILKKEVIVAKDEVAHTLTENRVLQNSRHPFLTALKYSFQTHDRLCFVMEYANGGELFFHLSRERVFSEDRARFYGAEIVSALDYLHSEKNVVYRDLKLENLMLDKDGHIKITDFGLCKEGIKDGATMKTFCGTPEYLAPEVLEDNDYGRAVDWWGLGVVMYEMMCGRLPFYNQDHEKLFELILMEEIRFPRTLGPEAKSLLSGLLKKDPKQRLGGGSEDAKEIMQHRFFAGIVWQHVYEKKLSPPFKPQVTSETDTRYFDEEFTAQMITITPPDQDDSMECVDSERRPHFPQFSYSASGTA

This experiment has as its target human recombinant kinase full-length AKT1 E17K (Homo sapiens, UniProt P31749, E17K). Nature of the experiment: AKT1 E17K kinase assay (TR-FRET, Lance). To be noted: read-out: AKT1 E17K Lance IC50; 0.6 nM AKT1 E17K, 50 nM Ulight-CREBtide, either 50 μM ATP or 2 mM ATP (not specified which), 60 min at RT. (In TR-FRET formats the signal depends on donor and acceptor labels being close together.)

In general, IC50 refers to the concentration that inhibits the measured activity by half.

Structures are written as SMILES. Structures were worked out from names or drawings and are uncertain.

In the case of `Cc1cc(C(=O)Nc2ccc(-n3c(-c4cccnc4N)nc4ccc(-c5ccccc5)nc43)cn2)c(C)cc1C(=O)O`, the IC50 is 200 to 500 nM.
